The test has as its target T1, CLCA4-Flag (chloride channel accessory 4) (UniProt Q14CN2).
T1 sequence: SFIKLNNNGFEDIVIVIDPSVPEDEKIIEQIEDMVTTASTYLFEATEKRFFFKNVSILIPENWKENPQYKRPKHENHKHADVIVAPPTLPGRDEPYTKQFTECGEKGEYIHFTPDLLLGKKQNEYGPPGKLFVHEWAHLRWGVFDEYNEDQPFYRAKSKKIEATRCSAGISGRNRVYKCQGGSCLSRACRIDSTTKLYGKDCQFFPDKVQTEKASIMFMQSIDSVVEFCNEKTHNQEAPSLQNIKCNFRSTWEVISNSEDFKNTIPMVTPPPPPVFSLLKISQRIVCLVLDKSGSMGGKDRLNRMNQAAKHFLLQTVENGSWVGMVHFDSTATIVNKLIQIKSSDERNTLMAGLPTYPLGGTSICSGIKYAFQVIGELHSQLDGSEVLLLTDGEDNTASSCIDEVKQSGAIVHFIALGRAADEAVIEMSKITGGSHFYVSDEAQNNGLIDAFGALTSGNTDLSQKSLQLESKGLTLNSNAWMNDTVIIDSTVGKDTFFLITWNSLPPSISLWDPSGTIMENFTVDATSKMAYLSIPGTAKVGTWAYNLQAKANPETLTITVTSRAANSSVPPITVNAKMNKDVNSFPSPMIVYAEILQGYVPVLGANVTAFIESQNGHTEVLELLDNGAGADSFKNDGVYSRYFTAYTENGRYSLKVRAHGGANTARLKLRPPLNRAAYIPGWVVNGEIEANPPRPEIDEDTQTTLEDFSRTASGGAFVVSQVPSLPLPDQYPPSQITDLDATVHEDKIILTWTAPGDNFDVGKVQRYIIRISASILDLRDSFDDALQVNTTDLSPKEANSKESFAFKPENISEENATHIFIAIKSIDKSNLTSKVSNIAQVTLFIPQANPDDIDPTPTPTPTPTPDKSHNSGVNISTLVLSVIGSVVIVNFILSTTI
The experiment in a line: affinity purification with mass spectrometry; immunoprecipitation sample against IgG control sample; tryptic peptides on a nanoUPLC-ESI-LTQ Orbitrap; proteins with at least two unique peptides.

By UniProt entry, the sequences of proteins in these tests, tags left out.
UniProt P08670: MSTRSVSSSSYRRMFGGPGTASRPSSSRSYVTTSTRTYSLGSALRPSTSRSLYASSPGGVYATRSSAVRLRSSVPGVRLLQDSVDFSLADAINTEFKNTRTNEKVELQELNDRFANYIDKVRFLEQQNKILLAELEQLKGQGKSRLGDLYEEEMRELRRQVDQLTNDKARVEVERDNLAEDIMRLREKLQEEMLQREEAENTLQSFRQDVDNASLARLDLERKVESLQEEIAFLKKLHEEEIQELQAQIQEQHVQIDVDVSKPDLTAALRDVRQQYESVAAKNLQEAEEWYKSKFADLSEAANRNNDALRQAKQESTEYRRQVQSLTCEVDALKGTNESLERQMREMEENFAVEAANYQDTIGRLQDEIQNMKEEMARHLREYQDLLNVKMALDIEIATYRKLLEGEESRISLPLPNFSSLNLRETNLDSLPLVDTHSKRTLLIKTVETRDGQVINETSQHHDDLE

Results are given in words; binding and its absence hold for the method and conditions named. In cells and extracts the contact can be indirect. Here binding means that the protein was enriched with, or labelled near, the bait; the list need not be complete. Tags and fused reporters may be left off the sequences shown.

Turning to “vimentin (found in the immunoprecipitate of CLCA4) (from UniProt P08670 1-466)”, the binding result is “binds”.
